Test results taken from patent US20240207458A1 (H. LEE MOFFITT CANCER CENTER AND RESEARCH INSTITUTE, INC., priority 2021, published 2024).

Assay: general procedure: Fmoc solid-phase peptide synthesis; HCTU/DIPEA
Conditions: late stage modification step, one disulfide bridge, sequence written open

Going from La-DOTA-D-Lys-D-Glu-TATE to 139La-DOTA-D-Phe-D-Ala-TATE, the “final HPLC purity” value rises from 98.4% to 100%.

Compared with La-DOTA-Ahx-TATE, 139La-DOTA-D-Phe-D-Leu-TATE is higher in “final HPLC purity” value: 95.6% for the first, 99.2% for the second.

Going from La-DOTA-D-Glu-D-Glu-TATE to La-DOTA-D-Lys-D-Lys-TATE, the “final HPLC purity” value falls from 97.0% to 95.2%.

Same assay, conditions: whole synthesis, one disulfide bridge, sequence written open

First: DOTA-D-Phe-D-Ala-TATE
Second: DOTA-D-Phe-D-Leu-TATE
The “final HPLC purity” value of the first is lower: 99.8% for the first, 100% for the second.

Going from DOTA-Ahx-TATE to DOTA-di-D-Glu-TATE, the “final HPLC purity” value rises from 96% to 97%.

Compared with DOTA-D-Lys-D-Glu-TATE, DOTA-di-D-Lys-TATE is higher in “final HPLC purity” value: 97% for the first, 98% for the second.
